Laboratory results as given in the supplement of paper PMC12819154, “High-throughput peptide-centric local stability assay extends protein–ligand identification to membrane proteins, tissues and bacteria” (Nature Structural & Molecular Biology, 2025).
Some of the results follow. Most entries show no effect beyond the scatter of the controls.

The chains behind the UniProt entries cited, without tags or fusion partners. Where a name states a change or a piece, a line headed by the entry shows the natural chain unless it says otherwise.
UniProt Q14257: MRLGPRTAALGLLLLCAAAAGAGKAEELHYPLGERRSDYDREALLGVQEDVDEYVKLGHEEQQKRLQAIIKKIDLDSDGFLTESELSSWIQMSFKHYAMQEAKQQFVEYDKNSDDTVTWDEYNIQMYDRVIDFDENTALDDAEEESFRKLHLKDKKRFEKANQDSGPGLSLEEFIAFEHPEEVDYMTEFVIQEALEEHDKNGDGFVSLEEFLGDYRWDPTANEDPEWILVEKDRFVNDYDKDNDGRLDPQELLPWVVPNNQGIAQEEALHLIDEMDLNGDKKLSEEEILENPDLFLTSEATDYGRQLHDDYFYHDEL
UniProt Q15032: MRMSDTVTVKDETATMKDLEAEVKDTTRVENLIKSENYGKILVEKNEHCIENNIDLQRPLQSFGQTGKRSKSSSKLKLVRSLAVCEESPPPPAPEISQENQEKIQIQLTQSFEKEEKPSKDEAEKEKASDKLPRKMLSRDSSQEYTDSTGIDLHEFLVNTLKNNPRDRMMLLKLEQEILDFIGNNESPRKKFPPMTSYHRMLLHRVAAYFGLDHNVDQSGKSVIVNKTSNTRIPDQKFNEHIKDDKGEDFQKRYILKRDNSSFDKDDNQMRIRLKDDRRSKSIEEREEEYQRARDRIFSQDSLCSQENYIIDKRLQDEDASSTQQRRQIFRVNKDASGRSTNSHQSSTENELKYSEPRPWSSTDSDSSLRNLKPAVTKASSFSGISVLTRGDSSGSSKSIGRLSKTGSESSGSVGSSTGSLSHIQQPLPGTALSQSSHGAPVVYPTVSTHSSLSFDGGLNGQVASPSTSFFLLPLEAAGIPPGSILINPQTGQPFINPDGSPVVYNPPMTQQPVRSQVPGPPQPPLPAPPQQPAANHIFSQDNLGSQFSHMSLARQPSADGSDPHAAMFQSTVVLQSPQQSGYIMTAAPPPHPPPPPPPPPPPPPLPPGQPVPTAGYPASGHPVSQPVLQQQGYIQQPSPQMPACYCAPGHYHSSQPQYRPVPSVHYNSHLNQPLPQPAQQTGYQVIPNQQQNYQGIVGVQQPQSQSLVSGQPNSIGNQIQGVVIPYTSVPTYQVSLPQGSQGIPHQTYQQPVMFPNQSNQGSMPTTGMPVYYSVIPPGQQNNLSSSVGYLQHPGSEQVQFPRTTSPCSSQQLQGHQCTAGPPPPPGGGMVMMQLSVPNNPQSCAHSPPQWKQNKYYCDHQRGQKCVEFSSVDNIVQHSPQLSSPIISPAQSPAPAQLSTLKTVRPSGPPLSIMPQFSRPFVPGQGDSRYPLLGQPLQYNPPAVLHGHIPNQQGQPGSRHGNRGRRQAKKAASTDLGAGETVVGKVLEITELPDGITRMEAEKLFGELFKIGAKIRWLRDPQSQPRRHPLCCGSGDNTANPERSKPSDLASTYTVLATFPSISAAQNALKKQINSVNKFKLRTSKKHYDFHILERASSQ
UniProt Q13310, whole entry: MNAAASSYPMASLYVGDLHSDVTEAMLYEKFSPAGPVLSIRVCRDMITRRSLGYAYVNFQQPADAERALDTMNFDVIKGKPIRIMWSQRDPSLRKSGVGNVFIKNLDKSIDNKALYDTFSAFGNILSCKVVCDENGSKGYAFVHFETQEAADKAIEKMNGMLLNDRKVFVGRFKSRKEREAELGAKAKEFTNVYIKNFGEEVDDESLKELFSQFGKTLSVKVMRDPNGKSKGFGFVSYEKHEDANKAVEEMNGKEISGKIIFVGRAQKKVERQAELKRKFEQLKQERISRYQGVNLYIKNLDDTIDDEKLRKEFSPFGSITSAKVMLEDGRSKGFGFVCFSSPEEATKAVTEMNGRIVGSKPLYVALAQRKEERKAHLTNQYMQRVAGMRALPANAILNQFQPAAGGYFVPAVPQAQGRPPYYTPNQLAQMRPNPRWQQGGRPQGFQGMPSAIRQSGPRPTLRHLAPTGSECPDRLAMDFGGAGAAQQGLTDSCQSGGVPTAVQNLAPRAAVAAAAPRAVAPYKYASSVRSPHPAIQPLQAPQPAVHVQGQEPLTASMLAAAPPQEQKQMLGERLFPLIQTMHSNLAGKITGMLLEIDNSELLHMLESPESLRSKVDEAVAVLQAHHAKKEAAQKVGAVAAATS
UniProt Q13620, whole entry: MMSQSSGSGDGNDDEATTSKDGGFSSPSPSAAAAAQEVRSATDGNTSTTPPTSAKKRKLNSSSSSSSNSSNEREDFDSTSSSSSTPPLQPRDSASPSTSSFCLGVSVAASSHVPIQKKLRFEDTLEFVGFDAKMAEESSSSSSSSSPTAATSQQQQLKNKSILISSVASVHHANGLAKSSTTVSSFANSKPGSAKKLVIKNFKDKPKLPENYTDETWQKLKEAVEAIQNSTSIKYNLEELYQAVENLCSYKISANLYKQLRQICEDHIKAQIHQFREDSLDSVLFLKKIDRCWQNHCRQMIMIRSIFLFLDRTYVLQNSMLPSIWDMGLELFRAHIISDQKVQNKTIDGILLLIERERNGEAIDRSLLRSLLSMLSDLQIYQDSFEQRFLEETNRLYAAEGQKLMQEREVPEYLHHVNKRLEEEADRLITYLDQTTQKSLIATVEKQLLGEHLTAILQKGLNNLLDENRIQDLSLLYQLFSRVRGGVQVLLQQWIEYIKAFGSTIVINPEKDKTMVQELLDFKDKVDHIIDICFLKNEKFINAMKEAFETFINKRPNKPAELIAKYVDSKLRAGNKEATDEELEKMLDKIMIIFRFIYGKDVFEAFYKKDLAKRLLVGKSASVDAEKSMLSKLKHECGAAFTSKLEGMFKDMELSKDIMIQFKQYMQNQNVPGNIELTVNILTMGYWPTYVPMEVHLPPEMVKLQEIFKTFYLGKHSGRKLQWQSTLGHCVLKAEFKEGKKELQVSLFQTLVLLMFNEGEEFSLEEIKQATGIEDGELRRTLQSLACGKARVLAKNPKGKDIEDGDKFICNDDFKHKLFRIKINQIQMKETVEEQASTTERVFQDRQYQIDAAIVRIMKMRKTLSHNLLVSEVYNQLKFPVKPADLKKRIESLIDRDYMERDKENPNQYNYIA
UniProt Q13492: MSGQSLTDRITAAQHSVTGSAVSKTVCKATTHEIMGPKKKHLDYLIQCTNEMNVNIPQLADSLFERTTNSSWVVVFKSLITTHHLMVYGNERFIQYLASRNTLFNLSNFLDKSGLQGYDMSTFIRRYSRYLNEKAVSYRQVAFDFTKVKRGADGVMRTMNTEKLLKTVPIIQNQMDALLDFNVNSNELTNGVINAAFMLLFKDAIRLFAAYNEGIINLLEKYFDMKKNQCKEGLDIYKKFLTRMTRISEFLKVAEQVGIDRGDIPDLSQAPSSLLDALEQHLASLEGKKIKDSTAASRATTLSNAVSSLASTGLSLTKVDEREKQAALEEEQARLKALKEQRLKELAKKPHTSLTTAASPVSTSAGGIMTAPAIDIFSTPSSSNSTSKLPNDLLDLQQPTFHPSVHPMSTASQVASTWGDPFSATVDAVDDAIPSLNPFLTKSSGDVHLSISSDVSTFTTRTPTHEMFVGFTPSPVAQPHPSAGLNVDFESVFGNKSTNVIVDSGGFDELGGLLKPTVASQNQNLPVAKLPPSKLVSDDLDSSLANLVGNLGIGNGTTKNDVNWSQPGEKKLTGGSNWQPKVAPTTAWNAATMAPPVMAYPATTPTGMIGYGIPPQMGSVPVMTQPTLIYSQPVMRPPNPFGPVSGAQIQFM
UniProt Q13496: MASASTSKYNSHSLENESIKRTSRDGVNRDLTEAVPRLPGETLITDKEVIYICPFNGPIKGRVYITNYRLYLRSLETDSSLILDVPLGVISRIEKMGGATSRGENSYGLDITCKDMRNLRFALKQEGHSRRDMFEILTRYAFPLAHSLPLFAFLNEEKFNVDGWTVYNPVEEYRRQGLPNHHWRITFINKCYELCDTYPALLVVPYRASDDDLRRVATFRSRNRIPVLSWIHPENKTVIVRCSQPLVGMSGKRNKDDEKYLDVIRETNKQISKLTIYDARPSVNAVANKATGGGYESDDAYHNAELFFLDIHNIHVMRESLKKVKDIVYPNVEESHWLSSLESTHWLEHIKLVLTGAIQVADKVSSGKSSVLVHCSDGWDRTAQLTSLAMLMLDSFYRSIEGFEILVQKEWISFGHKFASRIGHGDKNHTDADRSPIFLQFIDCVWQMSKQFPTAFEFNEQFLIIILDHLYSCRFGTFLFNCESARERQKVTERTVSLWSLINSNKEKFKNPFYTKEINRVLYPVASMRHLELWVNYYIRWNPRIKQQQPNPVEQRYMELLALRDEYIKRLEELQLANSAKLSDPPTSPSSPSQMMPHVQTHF
UniProt Q13685: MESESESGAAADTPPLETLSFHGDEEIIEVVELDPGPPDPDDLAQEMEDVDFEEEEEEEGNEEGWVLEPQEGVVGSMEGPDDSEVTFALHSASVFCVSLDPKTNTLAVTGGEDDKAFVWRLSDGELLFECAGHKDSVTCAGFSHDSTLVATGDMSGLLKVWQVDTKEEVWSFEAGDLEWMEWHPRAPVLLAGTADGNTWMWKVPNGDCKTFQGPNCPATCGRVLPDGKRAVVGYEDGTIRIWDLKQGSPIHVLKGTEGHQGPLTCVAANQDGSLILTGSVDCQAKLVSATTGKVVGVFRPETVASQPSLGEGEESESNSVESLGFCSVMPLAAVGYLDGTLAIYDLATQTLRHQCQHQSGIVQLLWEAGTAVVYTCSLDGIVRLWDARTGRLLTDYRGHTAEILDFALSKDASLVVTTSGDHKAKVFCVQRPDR
UniProt Q13505: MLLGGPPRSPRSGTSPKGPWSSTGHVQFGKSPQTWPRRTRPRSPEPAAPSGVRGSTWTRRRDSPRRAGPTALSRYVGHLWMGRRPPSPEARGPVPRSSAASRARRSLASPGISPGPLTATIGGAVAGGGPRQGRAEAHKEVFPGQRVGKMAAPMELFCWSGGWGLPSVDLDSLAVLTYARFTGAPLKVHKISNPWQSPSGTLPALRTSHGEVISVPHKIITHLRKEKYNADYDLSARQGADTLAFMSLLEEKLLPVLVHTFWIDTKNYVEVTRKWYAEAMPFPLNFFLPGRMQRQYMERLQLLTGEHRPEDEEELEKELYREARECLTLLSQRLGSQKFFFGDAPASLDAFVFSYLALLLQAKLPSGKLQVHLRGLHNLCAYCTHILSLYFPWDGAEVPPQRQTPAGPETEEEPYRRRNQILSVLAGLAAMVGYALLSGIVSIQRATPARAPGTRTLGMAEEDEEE
UniProt Q14135: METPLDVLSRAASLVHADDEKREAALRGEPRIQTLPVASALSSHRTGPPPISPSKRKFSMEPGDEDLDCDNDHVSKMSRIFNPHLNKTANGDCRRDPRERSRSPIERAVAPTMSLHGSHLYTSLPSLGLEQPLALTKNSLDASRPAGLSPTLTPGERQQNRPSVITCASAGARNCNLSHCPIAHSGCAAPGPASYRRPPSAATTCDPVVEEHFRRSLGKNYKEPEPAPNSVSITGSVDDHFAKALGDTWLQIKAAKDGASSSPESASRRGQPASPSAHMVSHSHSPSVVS
UniProt Q14BN4: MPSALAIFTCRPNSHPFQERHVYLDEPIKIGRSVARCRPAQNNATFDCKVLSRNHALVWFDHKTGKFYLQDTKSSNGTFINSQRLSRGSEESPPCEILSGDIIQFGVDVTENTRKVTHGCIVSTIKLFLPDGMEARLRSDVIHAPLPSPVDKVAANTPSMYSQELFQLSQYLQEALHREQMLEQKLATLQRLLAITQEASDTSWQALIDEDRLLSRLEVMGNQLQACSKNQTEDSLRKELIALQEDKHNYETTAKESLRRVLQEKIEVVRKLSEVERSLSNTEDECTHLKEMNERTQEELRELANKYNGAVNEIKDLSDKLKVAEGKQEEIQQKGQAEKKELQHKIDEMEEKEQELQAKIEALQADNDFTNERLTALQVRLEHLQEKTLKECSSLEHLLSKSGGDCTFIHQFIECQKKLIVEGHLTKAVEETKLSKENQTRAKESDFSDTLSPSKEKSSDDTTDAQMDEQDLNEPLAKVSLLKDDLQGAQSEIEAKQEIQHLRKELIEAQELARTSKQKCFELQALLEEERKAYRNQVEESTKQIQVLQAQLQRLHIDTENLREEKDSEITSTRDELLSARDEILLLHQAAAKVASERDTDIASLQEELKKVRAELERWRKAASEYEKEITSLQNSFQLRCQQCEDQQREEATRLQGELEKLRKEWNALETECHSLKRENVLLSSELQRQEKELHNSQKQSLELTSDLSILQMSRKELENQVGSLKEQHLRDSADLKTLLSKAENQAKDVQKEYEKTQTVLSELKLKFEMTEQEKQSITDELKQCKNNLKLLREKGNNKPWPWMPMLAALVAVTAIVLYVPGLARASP
UniProt Q13868, whole entry: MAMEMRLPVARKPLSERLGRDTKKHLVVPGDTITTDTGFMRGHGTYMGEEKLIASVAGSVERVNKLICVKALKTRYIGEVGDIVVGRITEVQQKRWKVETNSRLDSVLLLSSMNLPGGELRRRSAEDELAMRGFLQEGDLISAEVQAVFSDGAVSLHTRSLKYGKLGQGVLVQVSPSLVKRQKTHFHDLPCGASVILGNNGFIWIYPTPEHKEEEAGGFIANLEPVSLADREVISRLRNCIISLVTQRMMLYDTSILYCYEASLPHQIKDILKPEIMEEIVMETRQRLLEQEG

These targets were tested with CN[C@@H]1C[C@H]2O[C@@](C)([C@@H]1OC)n1c3ccccc3c3c4c(c5c6ccccc6n2c5c31)C(=O)NC4 [staurosporine] (assay: log2 fold change of tryptic peptide abundance, ligand vs vehicle (limited proteolysis) (log2 ratio); higher = more trypsin-susceptible (destabilized)). Details: ligand concentration: 20 uM; sample: K562 cleared lysate; digestion: 4 min, 22 C (HT-PELSA RT4min, Orbitrap Astral).
In the case of “UniProt Q15046 (peptide sequence: INMVEELEK, peptide start residue: 394)”, the log2 fold change is reported as 0.4. In the case of “RCN2 (peptide sequence: EALLGVQEDVDEYVKLGHEEQQK, peptide start residue: 42) (UniProt Q14257)”, the log2 fold change is reported as -0.979. With “NAE1 (peptide sequence: LADVLWNSQIPLLICR, peptide start residue: 139) (UniProt Q13564)” the log2 fold change was 0.486. “R3HDM1 (peptide sequence: SIEEREEEYQR, peptide start residue: 282) (UniProt Q15032)” showed a log2 fold change of -0.496. With “PABPC4 (peptide sequence: KFEQLKQER, peptide start residue: 279) (UniProt Q13310)” the log2 fold change was 0.257. Work on “LASP1 (peptide sequence: DSQDGSSYR, peptide start residue: 145) (UniProt Q14847)” yielded a log2 fold change of -0.117. With “EIF4EBP1 (peptide sequence: FLMECRNSPVTK, peptide start residue: 58) (UniProt Q13541)” the log2 fold change was 0.652. For “UniProt Q13620 (peptide sequence: QLLGEHLTAILQK, peptide start residue: 447)”, the log2 fold change was -0.263. For “FAM50A (peptide sequence: SAGVEQLMYIK, peptide start residue: 243) (UniProt Q14320)”, the log2 fold change was 0.582. Target “PICALM (peptide sequence: NDVNWSQPGEK, peptide start residue: 560) (UniProt Q13492)” has a log2 fold change of -0.115. For “SPTAN1 (peptide sequence: VLETAEDIQERR, peptide start residue: 8) (UniProt Q13813)”, the log2 fold change was -0.687. Work on “MTM1 (peptide sequence: YNSHSLENESIKR, peptide start residue: 9) (UniProt Q13496)” yielded a log2 fold change of -0.151. Target “VEZF1 (peptide sequence: TSFVCTYCSK, peptide start residue: 72) (UniProt Q14119)” has a log2 fold change of 0.206. In the case of “IL18 (peptide sequence: TIFIISMYK, peptide start residue: 81) (UniProt Q14116)”, the log2 fold change is reported as 0.112. For “PIN1 (peptide sequence: TGEMSGPVFTDSGIHIILR, peptide start residue: 143) (UniProt Q13526)”, the log2 fold change was -0.395. Target “FAT1 (peptide sequence: ELDHEKR, peptide start residue: 2874) (UniProt Q14517)” has a log2 fold change of 0.000925. “NNT (peptide sequence: VALSPAGVQNLVK, peptide start residue: 72) (UniProt Q13423)” was tested, and the log2 fold change was 0.109. In the case of “AAMP (peptide sequence: AVVGYEDGTIR, peptide start residue: 230) (UniProt Q13685)”, the log2 fold change is reported as 0.185. In the case of “UniProt Q14241 (peptide sequence: NIQFAHANKPK, peptide start residue: 673)”, the log2 fold change is reported as 0.399. With “NMI (peptide sequence: EHSPDEFIKDEQNK, peptide start residue: 14) (UniProt Q13287)” the log2 fold change was -0.173. For “MTX1 (peptide sequence: YNADYDLSAR, peptide start residue: 228) (UniProt Q13505)”, the log2 fold change was 0.435. In the case of “VGLL4 (peptide sequence: MQTLPVASALSSHR, peptide start residue: 32) (UniProt Q14135)”, the log2 fold change is reported as 0.341. Work on “PSME4 (peptide sequence: ALPGVDPNDFSK, peptide start residue: 488) (UniProt Q14997)” yielded a log2 fold change of 0.441. Target “SLMAP (peptide sequence: ELIALQEDKHNYETTAK, peptide start residue: 239) (UniProt Q14BN4)” has a log2 fold change of -0.419. For “ITGB3BP (peptide sequence: SLKLDGLLEENSFDPSKITR, peptide start residue: 6) (UniProt Q13352)”, the log2 fold change was -0.44. For “KIAA0100 (peptide sequence: SDLNMQQQEEEEKAR, peptide start residue: 2199) (UniProt Q14667)”, the log2 fold change was -0.343. “DHX34 (peptide sequence: LLEDAFFREEDYIR, peptide start residue: 38) (UniProt Q14147)” was tested, and the log2 fold change was 0.42. Target “EXOSC2 (peptide sequence: GHGTYMGEEK, peptide start residue: 42) (UniProt Q13868)” has a log2 fold change of 0.232.
